Experimental data reported in article PMC12680756, “Reflectometric-based sensor arrays for the screening of kinase-inhibitor interactions and kinetic determination” (Analytical and Bioanalytical Chemistry, 2025).

System: protein mix (PKA)
Settings: constant protein mix concentration titrated with inhibitor in pre-incubation; data not shown

With CN[C@@H]1C[C@H]2O[C@@](C)([C@@H]1OC)n1c3ccccc3c3c4c(c5c6ccccc6n2c5c31)C(=O)NC4 [STP, Staurosporine] the “binding inhibition, change in optical thickness” value was “concentration-dependent change in optical thickness”.
